Data from patent US20220348663A1 (Y BIOLOGICS, published 2022).
Changes are numbered by the printed parent chain. No constants are given. Whether binding was seen depends on the method and setting. Some binding calls cover weakened binding; strength is not graded here. One block for each binder: values may come before it.

What was measured:
[1] = target: T1, human B7-H3 expressed on the cell surface (human) (UniProt Q5ZPR3); test: flow cytometry on cell lines expressing human B7-H3 (FIG. 6a)
T1 sequence: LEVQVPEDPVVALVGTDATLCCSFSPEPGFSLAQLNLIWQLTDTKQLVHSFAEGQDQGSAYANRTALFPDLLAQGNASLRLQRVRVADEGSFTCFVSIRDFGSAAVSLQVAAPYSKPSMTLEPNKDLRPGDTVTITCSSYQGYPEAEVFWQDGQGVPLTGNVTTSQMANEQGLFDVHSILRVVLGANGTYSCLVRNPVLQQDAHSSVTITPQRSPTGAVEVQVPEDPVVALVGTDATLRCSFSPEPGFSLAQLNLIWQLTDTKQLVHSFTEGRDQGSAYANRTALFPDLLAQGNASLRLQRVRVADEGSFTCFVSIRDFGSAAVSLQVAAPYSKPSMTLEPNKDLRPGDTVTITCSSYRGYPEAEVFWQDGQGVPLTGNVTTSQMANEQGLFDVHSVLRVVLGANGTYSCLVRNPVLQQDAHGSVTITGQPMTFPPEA

[2] = target: T1, human B7-H3 expressed on the cell surface (human); test: flow cytometry, geometric mean (FITC), on HEK293E/B7H3+++ and HEK293E cells
[3] = target: T2, rat B7-H3 (#80380-R08H, Sino) (rat, UniProt Q7TPB4 29-244); test: ELISA on coated Rat B7H3, OD450nm
T2 construct: Bought protein; also called rat B7-H3 antigen
T2 sequence (looked up): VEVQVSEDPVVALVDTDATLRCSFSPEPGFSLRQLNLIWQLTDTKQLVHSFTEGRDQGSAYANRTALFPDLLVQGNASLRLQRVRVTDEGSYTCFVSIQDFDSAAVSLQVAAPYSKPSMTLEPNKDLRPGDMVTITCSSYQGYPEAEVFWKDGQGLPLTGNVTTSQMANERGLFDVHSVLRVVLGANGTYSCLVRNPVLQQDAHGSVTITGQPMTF

[4] = target: T1, human B7-H3 expressed on the cell surface (human); test: flow cytometry on cell lines expressing human B7-H3 (FIG. 6d, 'the six antibodies')
[5] = target: T1, human B7-H3 expressed on the cell surface (human); test: flow cytometry, geometric mean (FITC), on A498 and NCI-N87 cells
[6] = target: T3, Mouse B7-H3 (#50973-M08H, Sino) (mouse, UniProt Q8VE98 29-244); test: ELISA on coated Mouse B7H3, OD450nm
T3 construct: Bought protein; also called mouse B7-H3 antigen
T3 sequence (looked up): T2 sequence (looked up) with R33A, A62S, D131N, L156V, M214L

[7] = target: T4, Human B7-H3 (#S1435, Y-Biologics) (human) (UniProt Q5ZPR3); test: ELISA on coated Human B7H3, OD450nm
T4 sequence: T1 sequence

[8] = target: T1, human B7-H3 expressed on the cell surface (human); test: flow cytometry, geometric mean (FITC), on HEK293E/B7H3+++, HEK293E, A498, Calu-6 and NCI-N87 cells
[9] = target: T1, human B7-H3 expressed on the cell surface (human); test: flow cytometry on cell lines expressing human B7-H3 (FIG. 6c)

B1: CD276-033E03 (antibody, V domains shown)
VH: QVQLVESGGGLVQSGGSLRLSCAASGFTFSSYAMSWVRQAPGKGLEWVSVISGSGGSRYYADSVKGRFTISRDNSKNTLYLQMNSLRAEDTAVYYCASHTIPGAWDVWGQGTLVTVSS
VL: QSALTQPASVSGSPGQSITISCTGTTRDVGGYNYVSWYQQHPGKAPKLMIYDVNNRPSGVSYRFSGSKSGNTASLTISGLQAEDEADYYCSSYTTSSRRVFGTGTKVTVL
binding [1]: binds | binding [2]: binds

B2: CD276-039C05_LS_002B07 (antibody, V domains shown)
VH: QVQLVESGAEVKKPGSSVKVSCKASGGTFSSYAISWVRQAPGQGLEWMGRIIPILGIANYAQKFQGRVTITADKSTSTAYMELSSLRSEDTAVYYCANGGDSSSWYTFDYWGQGTLITVSS
VL: DIQMTQSPSSLSASVGDRVTITCRASQGISSYLAWYQQKPGKAPKLLIYAASTLQSGVPSRFSGSGSGTDFTLTISSLQPEDFATYYCQQYYSFPLTFGGGTKVEIK
binding [3]: binds | binding [4]: binds | binding [5]: binds | binding [6]: binds | binding [7]: binds

The remaining lines, values ahead:

binding [8]: binds | binding [9]: binds
B3: CD276-039C05 (antibody, V domains shown)
VH: B2 VH
VL: DIQMTQSPSTLSASVGDKLTLTCRASQSISRWLAWYQQKPGKAPKLLIYKASYLQTGVPSRFSGSGTGTEFTLTISSLQPDDFATYYCQQYNTFPLTFAGGTKVEIK
notes: Converted from scFv to IgG form; Parent of the _LS_ light-chain variants

binding [4]: binds | binding [5]: binds
B4: CD276-039C05_LS_002C07 (antibody, V domains shown)
VH: B2 VH
VL: DIQMTQSPSTLSASVGDRVTITCRAGQSIRSWLAWYQQKPGEAPKLLIYKAYYLQTGVPSRFSGSGAGTEFTLTISSLQPDDFATYYCQQYNTSPLTFGGGTKVEIK
